Laboratory results: patent US6582899B1, “Methods for identifying agents that cause a lethal phenotype, and agents thereof” (Deltagen Proteomics, Inc., priority 2000, dated 2003)
Some of these results come from one statement about several compounds together.

Tested on: HT29 colon cancer cells
Assay: HT29 floater assay (negative selection)
Format: cell-based
Conditions: individual clone reintroduced into HT29 cells
Procedure: HT29 cells were tested for feasibility in the floater cell assay as follows. Briefly, six flasks were inoculated with 6.25×10^5 HT29 cells/flask on Day 0. On Day 1, after the cells had been allowed to adhere to the solid support, two of these flasks were infected with retroviral supernatant containing the retroviral vector pVT324, which includes a selectable drug resistant marker (e.g. neomycin), and which constitutively expresses a green fluorescent protein. Of the remaining four flasks, two were mock infected (i.e. exposed to all of the same reagents/conditions as flasks 1 and 2, minus the retrovirus, see “Example 3C”) and two were left undisturbed. […] To determine the inherent background level of floater cells present in the population, the ratio of the number of floater cells to the total number of cells (adherent cells+floater cells) was analyzed on both the Day 3 and Day 5 flasks that had not been manipulated. […] To determine the susceptibility of HT29 cells to retroviral infection, the fraction of cells that expressed GFP in pVT324 infected flasks was calculated using flow cytometry.
Twenty T175 flasks were seeded with 2.2×10^6 HT29 cells/flask in McCoy's 5A media (Gibco BRL) modified with 10% FBS. […] The floater populations of Days 3 and 5 were then combined and readied for a genomic DNA prep using a QIAamp kit (Qiagen) following standard procedures. […]

B1: 0195: cytotoxic agent isolated from clone 0195, SEQ ID NO: 22 (protein)
chain: PEILSRSHLLLAGQTLIGVVAMVVEAEGEEDPWAVEAMEVVAVVVVAEEDFPVEVVAVEDSSELVTGSVLIPPVRI
For B1, the floater rate was 4.5-7.5%.
